Read-outs that look alike come from different tables or passages of the source. Results are given in words; binding and its absence hold for the method and conditions named. A result given as binding can be weak or reduced; the word gives no strength. Sequences can lack the tags named with a protein. For part of these data: Binding seen in cells or lysates may run through a third protein.

Test [1] deals with tubulin from goat brain (microtubules) (goat). Nature of the test: co-sedimentation.
Test [2] shares this target. Nature of the test: co-sedimentation. The source holds these as a separate data set.

B1: EB1 (endogenous, goat brain) (protein, UniProt A0A452FST7 1-268)
chain: MAVNVYSTSVTSDNLSRHDMLAWINESLQLNLTKIEQLCSGAAYCQFMDMLFPGSIALKKVKFQAKLEHEYIQNFKILQAGFKRMGVDKIIPVDKLVKGKFQDNFEFVQWFKKFFDANYDGKEYDPVAARQGQETAVAPSLVAPALNKPKKPLSSSSAAPQRPIATHRTTATPKAGPGVVRKNPGVGNGDDEAAELMQQVNVLKLTVEDLEKERDFYFGKLRNIELICQENEGENNPVLQRIVDILYATDEGFVIPDEGGPQEEQEEY
With B1, the binding entry in test [1] is listed as “binds”.

B2: recombinant full-length human CEP41 (his-tag cleaved) (protein, UniProt Q9BYV8-1 1-373)
chain: MSLRRHIGNPEYLMKRIPQNPRYQHIKSRLDTGNSMTKYTEKLEEIKKNYRYKKDELFKRLKVTTFAQLIIQVASLSDQTLEVTAEEIQRLEDNDSAASDPDAETTARTNGKGNPGEQSPSPEQFINNAGAGDSSRSTLQSVISGVGELDLDKGPVKKAEPHTKDKPYPDCPFLLLDVRDRDSYQQCHIVGAYSYPIATLSRTMNPYSNDILEYKNAHGKIIILYDDDERLASQAATTMCERGFENLFMLSGGLKVLAQKFPEGLITGSLPASCQQALPPGSARKRSSPKGPPLPAENKWRFTPEDLKKIEYYLEEEQGPADHPSRLNQANSSGRESKVPGARSAQNLPGGGPASHSNPRSLSSGHLQGKPWK
Regarding B2, the binding entry in test [2] and in test [1] was “binds” throughout.

These data come from doi:10.1101/2023.12.22.573068.
